For one assay, the system named is IL-6-GFP PC-9GR. Briefly: IL-6-GFP fluorescence relative to DMSO control (fraction of control); higher = more IL-6-GFP expression. Conditions: compound concentration: 10 uM; treatment time: 48 h. As for the experimental part: (§1)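 IL-6-GFP-overexpressing PC-9 and PC-9GR EGFR-mutant lung cancer cells (3000 cells/well, 96-well) were treated for 48 h with each compound of the Selleck L2000 library at 10 uM. IL-6-GFP fluorescence was read on a high-content screening system, and viability by CCK-8 absorbance on a parallel plate set. Each value was normalised as compound well / DMSO control well; two independent replicates.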

The subject of the next assay is IL-6-GFP PC-9. The description is as above. The conditions noted are these: compound concentration: 10 uM; treatment time: 48 h. As for the experimental part: as §1

± gives the standard deviation of the averaged measurements. This is one part of the list. Most values lie within the scatter of the assay; repeated measurements hardly agree.

Take `O=c1[nH]c(=O)n(C2CC(O)C(CO)O2)cc1F` (centres undefined) [Floxuridine]: the IL-6-GFP fluorescence in the assay on IL-6-GFP PC-9GR came to 1.11 ± 0.045; in the assay on IL-6-GFP PC-9, 0.637 ± 0.18.
For `COc1cc(/C=C/C(=O)/C=C(O)/C=C/c2ccc(O)c(OC)c2)ccc1O` [Curcumin], the IL-6-GFP fluorescence with IL-6-GFP PC-9GR is 1.12 ± 0.74; in the assay on IL-6-GFP PC-9, 1.26 ± 0.19.
In the same order, the values of `CCC(=O)OC1(C(=O)CCl)C(C)CC2C3CC(F)C4=CC(=O)C=CC4(C)C3(F)C(O)CC21C` (centres undefined) [Halobetasol Propionate] are 0.725 ± 0.41 and 1.14 ± 0.016.
For the compound `O=C(CCCCCCC(=O)Nc1ccccc1)NO` [Vorinostat (SAHA, MK0683)], the figures for the IL-6-GFP fluorescence in the assay with IL-6-GFP PC-9GR and in the assay on IL-6-GFP PC-9 were 1.2 ± 0.033 and 1.11 ± 0.041, respectively.
As for `O=C(O)Cc1ccccc1Nc1c(Cl)cccc1Cl` [Diclofenac acid], the IL-6-GFP fluorescence is 0.867 ± 0.037 in the assay with IL-6-GFP PC-9GR and 0.747 ± 0.12 with IL-6-GFP PC-9.
As to `CC(C)(C)c1ccc(C(=O)CCCN2CCC(OC(c3ccccc3)c3ccccc3)CC2)cc1` [Ebastine], the figures for the IL-6-GFP fluorescence in the assay on IL-6-GFP PC-9GR and in the assay on IL-6-GFP PC-9 were 0.8049 ± 0.0018 and 0.968 ± 0.44, respectively.
For `CCCCOC(=O)c1ccccc1Nc1cccc(C(F)(F)F)c1` [Ufenamate], in that order: 0.989 ± 0.033 and 0.85 ± 0.097.
For `O=C(O)CCC(=O)c1ccc(-c2ccccc2)cc1` [Fenbufen], in that order: 0.686 ± 0.32 and 1.07 ± 0.22.
As to `CCc1cccc2c3c([nH]c12)C(CC)(CC(=O)O)OCC3` (centres undefined) [Etodolac], the figures for the IL-6-GFP fluorescence in the assay with IL-6-GFP PC-9GR and in the assay with IL-6-GFP PC-9 were 1.12 ± 0.028 and 1.1 ± 0.25, respectively.
With `COC(=O)c1cc(OC)c2c(c1-c1c(CO)cc(OC)c3c1OCO3)OCO2` [Bicyclol], the IL-6-GFP fluorescence was 0.878 ± 0.019 with IL-6-GFP PC-9GR and 0.856 ± 0.04 in the assay on IL-6-GFP PC-9.
Turning to `COc1cc2nccc(Oc3ccc(NC(=O)C4(C(=O)Nc5ccc(F)cc5)CC4)cc3)c2cc1OC`, the results for the IL-6-GFP fluorescence with IL-6-GFP PC-9GR and in the assay on IL-6-GFP PC-9 were 1.09 ± 0.25 and 0.997 ± 0.18, respectively.
In the same order, the values of `CN(C)CCN1C(=O)c2cccc3cc(N)cc(c23)C1=O` [Amonafide] are 1.43 ± 0.28 and 1.23 ± 0.28.

These data come from the supplement of paper PMC8866396.
